# Experimental data taken from the supplement of paper PMC10849652.
# The chains behind the UniProt entries cited, without tags or fusion partners. Where a name states a change or a piece, a line headed by the entry shows the natural chain unless it says otherwise.
# UniProt Q13227: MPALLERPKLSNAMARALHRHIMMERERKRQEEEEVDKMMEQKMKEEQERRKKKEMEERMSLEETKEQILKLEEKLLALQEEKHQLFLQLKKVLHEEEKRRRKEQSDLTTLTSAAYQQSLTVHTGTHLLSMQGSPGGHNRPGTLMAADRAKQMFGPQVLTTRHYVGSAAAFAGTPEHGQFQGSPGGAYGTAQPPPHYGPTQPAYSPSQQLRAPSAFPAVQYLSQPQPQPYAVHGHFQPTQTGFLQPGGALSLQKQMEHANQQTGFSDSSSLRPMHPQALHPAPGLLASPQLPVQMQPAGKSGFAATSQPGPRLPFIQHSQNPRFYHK
# UniProt Q9Y2X7: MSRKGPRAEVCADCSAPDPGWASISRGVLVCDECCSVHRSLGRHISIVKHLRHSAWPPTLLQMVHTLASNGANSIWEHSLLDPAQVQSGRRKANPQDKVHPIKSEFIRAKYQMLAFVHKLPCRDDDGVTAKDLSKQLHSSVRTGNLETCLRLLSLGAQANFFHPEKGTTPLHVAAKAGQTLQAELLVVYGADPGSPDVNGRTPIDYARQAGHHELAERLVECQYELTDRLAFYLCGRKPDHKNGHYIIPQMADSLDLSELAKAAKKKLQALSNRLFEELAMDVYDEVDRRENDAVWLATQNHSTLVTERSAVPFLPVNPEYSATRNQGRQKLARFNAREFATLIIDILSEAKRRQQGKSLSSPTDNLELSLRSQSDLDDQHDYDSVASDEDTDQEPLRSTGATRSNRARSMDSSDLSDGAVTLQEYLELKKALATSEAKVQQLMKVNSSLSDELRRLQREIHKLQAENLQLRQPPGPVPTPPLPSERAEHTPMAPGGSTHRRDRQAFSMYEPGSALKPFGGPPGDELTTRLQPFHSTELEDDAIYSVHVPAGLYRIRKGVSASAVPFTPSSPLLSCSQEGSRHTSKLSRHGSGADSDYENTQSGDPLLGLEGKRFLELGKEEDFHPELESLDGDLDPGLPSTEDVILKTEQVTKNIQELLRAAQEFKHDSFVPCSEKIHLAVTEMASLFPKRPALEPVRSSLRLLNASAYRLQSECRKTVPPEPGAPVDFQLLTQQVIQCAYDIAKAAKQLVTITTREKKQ
# UniProt Q86V85: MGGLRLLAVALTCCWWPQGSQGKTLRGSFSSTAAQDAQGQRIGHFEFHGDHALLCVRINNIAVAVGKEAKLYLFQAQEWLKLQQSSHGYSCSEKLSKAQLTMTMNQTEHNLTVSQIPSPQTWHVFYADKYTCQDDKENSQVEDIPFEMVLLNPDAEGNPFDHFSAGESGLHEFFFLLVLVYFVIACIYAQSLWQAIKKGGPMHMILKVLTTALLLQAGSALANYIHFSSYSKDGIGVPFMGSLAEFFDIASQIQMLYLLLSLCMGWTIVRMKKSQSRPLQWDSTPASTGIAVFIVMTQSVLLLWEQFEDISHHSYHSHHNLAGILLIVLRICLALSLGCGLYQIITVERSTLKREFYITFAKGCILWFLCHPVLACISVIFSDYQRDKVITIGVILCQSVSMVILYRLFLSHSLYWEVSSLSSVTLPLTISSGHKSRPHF
# UniProt Q5T7V8: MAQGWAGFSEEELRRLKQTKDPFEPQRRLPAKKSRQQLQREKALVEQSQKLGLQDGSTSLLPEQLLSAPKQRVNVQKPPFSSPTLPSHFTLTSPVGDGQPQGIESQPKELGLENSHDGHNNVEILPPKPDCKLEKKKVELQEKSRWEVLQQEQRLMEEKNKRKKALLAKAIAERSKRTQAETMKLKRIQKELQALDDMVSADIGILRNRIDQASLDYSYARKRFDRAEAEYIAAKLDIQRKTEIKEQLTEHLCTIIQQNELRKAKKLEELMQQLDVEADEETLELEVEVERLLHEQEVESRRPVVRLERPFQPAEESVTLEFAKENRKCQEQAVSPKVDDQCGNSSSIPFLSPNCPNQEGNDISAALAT
# UniProt Q5T3I0: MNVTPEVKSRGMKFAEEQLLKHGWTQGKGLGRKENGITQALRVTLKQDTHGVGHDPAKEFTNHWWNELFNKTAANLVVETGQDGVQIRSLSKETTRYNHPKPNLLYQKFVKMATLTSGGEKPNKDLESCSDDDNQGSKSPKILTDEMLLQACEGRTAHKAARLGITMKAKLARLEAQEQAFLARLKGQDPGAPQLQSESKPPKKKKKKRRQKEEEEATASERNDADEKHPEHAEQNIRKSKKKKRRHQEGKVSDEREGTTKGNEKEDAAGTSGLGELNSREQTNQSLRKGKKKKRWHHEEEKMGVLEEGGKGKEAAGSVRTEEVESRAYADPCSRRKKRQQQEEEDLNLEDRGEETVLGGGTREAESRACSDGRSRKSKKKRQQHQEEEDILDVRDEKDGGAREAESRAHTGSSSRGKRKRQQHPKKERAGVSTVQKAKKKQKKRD
# UniProt Q9NPB8: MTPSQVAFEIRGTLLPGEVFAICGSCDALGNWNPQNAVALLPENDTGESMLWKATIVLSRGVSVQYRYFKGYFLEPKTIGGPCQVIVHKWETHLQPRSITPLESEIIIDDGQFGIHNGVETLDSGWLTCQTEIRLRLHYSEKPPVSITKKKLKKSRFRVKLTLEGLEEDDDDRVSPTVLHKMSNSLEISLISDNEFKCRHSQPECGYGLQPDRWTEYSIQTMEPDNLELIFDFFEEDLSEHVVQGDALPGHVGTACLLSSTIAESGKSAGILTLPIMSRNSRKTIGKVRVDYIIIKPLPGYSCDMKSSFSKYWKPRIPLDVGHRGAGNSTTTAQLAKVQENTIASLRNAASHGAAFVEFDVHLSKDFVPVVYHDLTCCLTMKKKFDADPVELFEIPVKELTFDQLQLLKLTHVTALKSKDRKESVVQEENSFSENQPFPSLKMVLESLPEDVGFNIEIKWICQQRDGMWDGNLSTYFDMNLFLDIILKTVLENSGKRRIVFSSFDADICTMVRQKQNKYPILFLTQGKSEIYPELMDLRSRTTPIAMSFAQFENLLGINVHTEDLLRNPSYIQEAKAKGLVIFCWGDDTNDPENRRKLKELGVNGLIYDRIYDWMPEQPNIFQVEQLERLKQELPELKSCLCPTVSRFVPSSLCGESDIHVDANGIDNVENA
# UniProt Q9UI32: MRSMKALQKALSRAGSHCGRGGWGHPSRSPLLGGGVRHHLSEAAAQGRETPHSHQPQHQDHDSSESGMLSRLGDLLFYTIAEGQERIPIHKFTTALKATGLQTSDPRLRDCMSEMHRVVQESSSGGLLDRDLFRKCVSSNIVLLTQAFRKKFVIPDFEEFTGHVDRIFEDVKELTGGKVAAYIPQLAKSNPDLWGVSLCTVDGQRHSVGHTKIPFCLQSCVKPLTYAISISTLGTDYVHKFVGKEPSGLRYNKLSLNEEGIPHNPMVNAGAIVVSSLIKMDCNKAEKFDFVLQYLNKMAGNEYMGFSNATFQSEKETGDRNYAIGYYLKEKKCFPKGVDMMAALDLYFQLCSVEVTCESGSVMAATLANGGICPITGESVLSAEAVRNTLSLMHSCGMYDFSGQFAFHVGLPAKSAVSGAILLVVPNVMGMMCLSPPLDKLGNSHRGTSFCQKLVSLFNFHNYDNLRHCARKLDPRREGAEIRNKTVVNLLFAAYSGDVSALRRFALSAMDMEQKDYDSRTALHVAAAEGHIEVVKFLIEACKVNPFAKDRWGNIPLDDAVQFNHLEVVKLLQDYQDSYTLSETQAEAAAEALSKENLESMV
# UniProt O60443: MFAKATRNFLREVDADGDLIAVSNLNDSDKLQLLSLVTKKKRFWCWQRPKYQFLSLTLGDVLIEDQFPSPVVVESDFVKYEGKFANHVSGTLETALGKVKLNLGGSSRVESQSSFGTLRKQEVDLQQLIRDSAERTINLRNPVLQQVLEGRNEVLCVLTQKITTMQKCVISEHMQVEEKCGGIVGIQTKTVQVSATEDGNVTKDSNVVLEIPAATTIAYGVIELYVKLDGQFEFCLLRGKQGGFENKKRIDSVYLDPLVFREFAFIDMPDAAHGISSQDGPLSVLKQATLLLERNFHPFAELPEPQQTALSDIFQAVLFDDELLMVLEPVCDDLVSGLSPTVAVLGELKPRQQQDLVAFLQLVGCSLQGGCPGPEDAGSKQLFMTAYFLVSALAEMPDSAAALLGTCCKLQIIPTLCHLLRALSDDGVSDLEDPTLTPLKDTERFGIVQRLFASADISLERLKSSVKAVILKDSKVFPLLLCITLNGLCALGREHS
# UniProt Q8WWB7: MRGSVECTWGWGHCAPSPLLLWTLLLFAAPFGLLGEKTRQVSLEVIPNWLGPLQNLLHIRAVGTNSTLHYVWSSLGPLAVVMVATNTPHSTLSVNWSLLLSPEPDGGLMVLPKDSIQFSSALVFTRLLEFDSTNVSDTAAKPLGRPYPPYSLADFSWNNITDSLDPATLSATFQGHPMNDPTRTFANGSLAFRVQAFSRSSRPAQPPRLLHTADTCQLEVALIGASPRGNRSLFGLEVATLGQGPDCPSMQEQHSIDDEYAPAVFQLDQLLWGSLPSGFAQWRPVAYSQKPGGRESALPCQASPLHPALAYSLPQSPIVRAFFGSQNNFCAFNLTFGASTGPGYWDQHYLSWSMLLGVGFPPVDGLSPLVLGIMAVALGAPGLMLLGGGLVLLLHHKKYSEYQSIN
# UniProt Q9BQQ3: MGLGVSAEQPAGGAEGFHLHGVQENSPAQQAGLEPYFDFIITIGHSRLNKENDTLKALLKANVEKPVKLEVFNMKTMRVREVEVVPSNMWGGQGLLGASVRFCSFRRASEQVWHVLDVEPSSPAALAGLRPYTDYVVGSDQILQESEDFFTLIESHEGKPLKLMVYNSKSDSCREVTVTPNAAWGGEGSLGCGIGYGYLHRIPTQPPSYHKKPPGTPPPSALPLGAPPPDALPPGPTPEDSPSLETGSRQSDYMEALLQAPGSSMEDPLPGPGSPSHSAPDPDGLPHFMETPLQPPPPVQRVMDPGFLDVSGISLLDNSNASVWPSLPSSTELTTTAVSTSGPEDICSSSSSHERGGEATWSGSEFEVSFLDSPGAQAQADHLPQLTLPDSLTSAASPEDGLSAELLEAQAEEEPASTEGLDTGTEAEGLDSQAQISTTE
# UniProt Q96CP6, whole entry, looked up: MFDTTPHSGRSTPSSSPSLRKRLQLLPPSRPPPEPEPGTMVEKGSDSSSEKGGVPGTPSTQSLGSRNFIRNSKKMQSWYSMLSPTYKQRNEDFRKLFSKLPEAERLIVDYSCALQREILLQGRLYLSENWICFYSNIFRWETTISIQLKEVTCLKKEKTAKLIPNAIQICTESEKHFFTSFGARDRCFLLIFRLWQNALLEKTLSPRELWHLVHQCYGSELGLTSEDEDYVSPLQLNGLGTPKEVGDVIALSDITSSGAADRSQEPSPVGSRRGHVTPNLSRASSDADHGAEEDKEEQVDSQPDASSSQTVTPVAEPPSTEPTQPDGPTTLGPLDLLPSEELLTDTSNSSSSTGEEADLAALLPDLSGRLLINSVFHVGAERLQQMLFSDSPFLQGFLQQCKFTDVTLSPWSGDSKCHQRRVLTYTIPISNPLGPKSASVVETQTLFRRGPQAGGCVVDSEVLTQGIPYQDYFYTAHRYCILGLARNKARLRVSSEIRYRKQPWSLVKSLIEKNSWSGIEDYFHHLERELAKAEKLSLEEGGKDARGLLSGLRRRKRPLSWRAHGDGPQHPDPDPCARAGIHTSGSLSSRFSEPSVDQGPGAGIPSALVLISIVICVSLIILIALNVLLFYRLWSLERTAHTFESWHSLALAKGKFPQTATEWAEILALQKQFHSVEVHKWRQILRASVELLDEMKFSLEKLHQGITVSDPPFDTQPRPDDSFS
# UniProt Q68CQ7: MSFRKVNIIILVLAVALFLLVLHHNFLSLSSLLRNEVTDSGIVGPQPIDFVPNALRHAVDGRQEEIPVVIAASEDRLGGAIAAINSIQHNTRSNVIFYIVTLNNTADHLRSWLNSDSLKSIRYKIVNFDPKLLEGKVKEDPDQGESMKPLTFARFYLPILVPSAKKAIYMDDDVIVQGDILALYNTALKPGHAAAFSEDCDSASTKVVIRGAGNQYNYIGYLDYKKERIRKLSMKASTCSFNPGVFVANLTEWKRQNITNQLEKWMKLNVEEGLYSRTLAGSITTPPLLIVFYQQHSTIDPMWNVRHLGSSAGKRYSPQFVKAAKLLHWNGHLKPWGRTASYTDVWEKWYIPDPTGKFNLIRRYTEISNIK
# UniProt Q8TD30: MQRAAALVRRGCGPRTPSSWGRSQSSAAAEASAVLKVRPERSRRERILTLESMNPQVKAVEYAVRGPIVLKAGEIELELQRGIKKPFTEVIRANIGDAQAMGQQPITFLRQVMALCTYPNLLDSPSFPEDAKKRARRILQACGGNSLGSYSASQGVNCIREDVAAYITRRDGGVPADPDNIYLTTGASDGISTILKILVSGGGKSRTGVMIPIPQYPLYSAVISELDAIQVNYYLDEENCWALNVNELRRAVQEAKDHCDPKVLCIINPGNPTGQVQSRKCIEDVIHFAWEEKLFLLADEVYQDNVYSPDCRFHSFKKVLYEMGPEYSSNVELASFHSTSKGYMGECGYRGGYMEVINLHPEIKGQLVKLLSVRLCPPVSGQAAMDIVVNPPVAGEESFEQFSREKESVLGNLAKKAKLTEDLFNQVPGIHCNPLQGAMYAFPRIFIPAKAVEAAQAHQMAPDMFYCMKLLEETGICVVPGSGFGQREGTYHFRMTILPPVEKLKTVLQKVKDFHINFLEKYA
# This is one part of the list.
# Experiments:
# Assay in all cases: log2 fold change, soluble protein after heating vs DMSO (PISA); higher = thermal stabilisation; K562 cells, 10 uM, 30 min; active = over 0.2 and 3.5 SD of the protein, either way, in both replicates (recomputed)
# erlotinib = compound: C#Cc1cccc(Nc2ncnc3cc(OCCOC)c(OCCOC)cc23)c1 [erlotinib]
# Summary of the method: (§1)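 Values are thermal stability changes relative to control samples and are taken from duplicates. They are stated as log2 fold changes. Before quantification by TMTpro 16plex LC-MS/MS with equalised channel sums, K562 cells at 2×10^6 cells/mL were treated with 10 μM compound for 30 min, heated in aliquots for 3 min across 48°C-58°C, pooled, extracted in PBS with 0.5% NP-40 at 4°C, and centrifuged at 21,000xg for 90 min to give the soluble supernatant.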
# [1] = compound: C1=CC(=CC=C1C2=NC3=C(N2)C=C(C=C3)C(=O)N)OC4=CC=C(C=C4)Cl
# Summary of the method: as §1
# [2] = compound: C1CCN(C1)C(=O)NC2=CC=CC(=C2)NC3=NC=C(C(=N3)NCCC4=CN=CN4)Br
# Summary of the method: as §1
# [3] = compound: C1CN(CCC1(CC2=CC=C(C=C2)Cl)N)C3=NC=NC4=C3C=CN4
# Summary of the method: as §1
# [4] = compound: C1=CC(=C(C=C1Cl)C2=NC3=NC=CN=C3C(=N2)NC4=CC=NC=C4)F
# Summary of the method: as §1
# [5] = compound: C1=CC2=NC=CN=C2C=C1/C=C/3\C(=O)NC(=O)S3
# Summary of the method: as §1
# [6] = compound: C/C(=N\NC(=O)C1=CC(=CC=C1)S(=O)(=O)N2CCOCC2)/C3=C(C=CC(=C3)Cl)O
# Summary of the method: as §1
# [7] = compound: C1=CC2=C(C=CC(=C2)/C=C\3/C(=O)NC(=NCC4=CC=CS4)S3)N=C1
# Summary of the method: as §1
# [8] = compound: C1=CC=C(C=C1)C2=NC(=C(N2)C3=CC=NC=C3)C4=CC(=C(C=C4)Cl)O
# Summary of the method: as §1
# [9] = compound: C1=CC=C2C(=C1)C3=NNC4=CC=CC(=C43)C2=O
# Summary of the method: as §1
target,measurement,setting,value
GPATCH2L (UniProt Q9NWQ4),log2 fold change,erlotinib,inactive: 0.558
same,log2 fold change,[1],inactive: 0.033
same,log2 fold change,[2],inactive: -0.134
same,log2 fold change,[3],inactive: -0.338
GOLGA6B (UniProt A6NDN3),log2 fold change,erlotinib,inactive: -0.069
same,log2 fold change,[4],inactive: -0.054
same,log2 fold change,[1],inactive: 0.116
same,log2 fold change,[5],inactive: 0.036
GK5 (UniProt Q6ZS86),log2 fold change,[6],inactive: -0.316
same,log2 fold change,[4],inactive: -0.03
same,log2 fold change,[7],inactive: -0.184
same,log2 fold change,[5],inactive: 0.16
same,log2 fold change,[8],inactive: -0.089
same,log2 fold change,[9],inactive: -0.023
same,log2 fold change,[2],inactive: 0.132
same,log2 fold change,[3],inactive: 0.12
GNL3 (UniProt Q9BVP2),log2 fold change,[6],active: -0.562
same,log2 fold change,[4],inactive: 0.165
same,log2 fold change,[7],inactive: 0.149
same,log2 fold change,[5],inactive: -0.054
same,log2 fold change,[9],inactive: 0.053
same,log2 fold change,[2],inactive: -0.048
same,log2 fold change,[3],inactive: 0.142
GPS1 (UniProt A8K070),log2 fold change,erlotinib,inactive: 0.084
same,log2 fold change,[1],inactive: 0.02
same,log2 fold change,[5],inactive: 0.057
same,log2 fold change,[8],inactive: -0.008
GOLM1 (UniProt Q8NBJ4),log2 fold change,erlotinib,inactive: -0.189
same,log2 fold change,[1],inactive: 0.181
same,log2 fold change,[5],inactive: -0.169
same,log2 fold change,[8],inactive: -0.067
same,log2 fold change,[2],inactive: 0.048
same,log2 fold change,[3],inactive: -0.158
GPS2 (UniProt Q13227),log2 fold change,erlotinib,inactive: -0.124
same,log2 fold change,[4],inactive: 0.066
same,log2 fold change,[1],inactive: -0.046
same,log2 fold change,[5],inactive: 0.05
same,log2 fold change,[8],inactive: -0.046
same,log2 fold change,[2],inactive: 0.262
same,log2 fold change,[3],inactive: 0.029
GOLPH3L (UniProt Q9H4A5),log2 fold change,[6],inactive: -0.114
same,log2 fold change,[4],inactive: -0.191
same,log2 fold change,[7],inactive: 0.076
same,log2 fold change,[9],inactive: -0.196
GLE1 (UniProt Q53GS7),log2 fold change,[6],inactive: -0.039
same,log2 fold change,[7],inactive: -0.194
same,log2 fold change,[9],inactive: -0.143
GIT1 isoform 3 (UniProt Q9Y2X7),log2 fold change,[6],inactive: -0.086
same,log2 fold change,[4],inactive: -0.205
same,log2 fold change,[7],inactive: 0.233
same,log2 fold change,[8],inactive: -0.26
same,log2 fold change,[9],inactive: 0.03
GPR180 (UniProt Q86V85),log2 fold change,[6],inactive: 0.155
same,log2 fold change,[4],inactive: -0.094
same,log2 fold change,[7],inactive: 0.068
same,log2 fold change,[5],inactive: -0.34
same,log2 fold change,[9],inactive: -0.055
same,log2 fold change,[2],inactive: -0.014
same,log2 fold change,[3],inactive: -0.01
GORAB (UniProt Q5T7V8),log2 fold change,erlotinib,inactive: 0.068
same,log2 fold change,[1],inactive: -0.122
same,log2 fold change,[5],inactive: 0.039
same,log2 fold change,[8],inactive: -0.092
same,log2 fold change,[2],inactive: 0.069
same,log2 fold change,[3],inactive: 0.028
GPATCH4 isoform 3 (UniProt Q5T3I0),log2 fold change,[4],inactive: -0.219
same,log2 fold change,[5],inactive: -0.223
same,log2 fold change,[8],inactive: 0.057
same,log2 fold change,[2],inactive: -0.13
same,log2 fold change,[3],inactive: -0.134
GPCPD1 (UniProt Q9NPB8),log2 fold change,[4],inactive: 0.098
same,log2 fold change,[8],inactive: 0.211
GOSR1 (UniProt E9PCW1),log2 fold change,erlotinib,inactive: 0.018
same,log2 fold change,[1],inactive: 0.173
same,log2 fold change,[5],inactive: 0.092
GPATCH1 (UniProt Q9BRR8),log2 fold change,erlotinib,inactive: 0.053
same,log2 fold change,[4],inactive: -0.025
same,log2 fold change,[1],inactive: 0.185
same,log2 fold change,[2],inactive: 0.022
same,log2 fold change,[3],inactive: 0.13
GPNMB (UniProt Q14956),log2 fold change,erlotinib,inactive: 0.286
same,log2 fold change,[4],inactive: -0.281
same,log2 fold change,[1],inactive: -0.046
GIGYF1 (UniProt O75420),log2 fold change,[4],inactive: -0.052
same,log2 fold change,[8],inactive: -0.273
GINM1 (UniProt Q9NU53),log2 fold change,erlotinib,inactive: -0.153
same,log2 fold change,[4],inactive: 0.073
same,log2 fold change,[1],inactive: 0.023
same,log2 fold change,[5],inactive: -0.02
GLS2 (UniProt Q9UI32),log2 fold change,[6],inactive: -0.082
same,log2 fold change,[7],inactive: -0.002
same,log2 fold change,[9],inactive: 0.057
GSDME (UniProt O60443),log2 fold change,erlotinib,inactive: 0.09
same,log2 fold change,[4],inactive: 0.131
same,log2 fold change,[1],inactive: 0.042
GOLIM4 (UniProt F8W785),log2 fold change,[4],inactive: 0.007
same,log2 fold change,[5],inactive: -0.02
same,log2 fold change,[2],inactive: -0.078
same,log2 fold change,[3],inactive: 0.028
GOLGA1 (UniProt Q92805),log2 fold change,erlotinib,inactive: 0.086
same,log2 fold change,[6],inactive: 0.236
same,log2 fold change,[1],inactive: -0.106
same,log2 fold change,[7],inactive: 0.145
same,log2 fold change,[8],inactive: 0.062
same,log2 fold change,[9],inactive: 0.048
GLMP (UniProt Q8WWB7),log2 fold change,[6],inactive: 0.002
same,log2 fold change,[4],inactive: -0.034
same,log2 fold change,[7],inactive: 0.076
same,log2 fold change,[8],inactive: 0.051
same,log2 fold change,[9],inactive: 0.054
same,log2 fold change,[2],inactive: -0.004
same,log2 fold change,[3],inactive: 0.058
GNL2 (UniProt Q13823),log2 fold change,[4],inactive: -0.457
same,log2 fold change,[5],inactive: -0.11
same,log2 fold change,[8],inactive: 0.016
same,log2 fold change,[2],inactive: 0.003
same,log2 fold change,[3],inactive: -0.092
GINS2 (UniProt Q9Y248),log2 fold change,erlotinib,inactive: 0.076
same,log2 fold change,[4],inactive: 0.083
same,log2 fold change,[1],inactive: -0.045
same,log2 fold change,[5],inactive: -0.008
same,log2 fold change,[8],inactive: 0.203
same,log2 fold change,[2],inactive: -0.089
same,log2 fold change,[3],inactive: -0.034
GMIP (UniProt Q9P107),log2 fold change,erlotinib,inactive: -0.029
same,log2 fold change,[4],inactive: 0.006
same,log2 fold change,[1],inactive: -0.002
same,log2 fold change,[5],inactive: 0.041
same,log2 fold change,[8],inactive: -0.123
same,log2 fold change,[2],inactive: -0.15
same,log2 fold change,[3],inactive: 0.012
GORASP1 (UniProt Q9BQQ3),log2 fold change,[4],inactive: -0.264
GSE1 (UniProt Q14687),log2 fold change,[5],inactive: -0.269
same,log2 fold change,[8],inactive: -0.048
GRAMD1A (UniProt Q96CP6),log2 fold change,[4],inactive: -0.04
same,log2 fold change,[5],inactive: 0
GPAA1 (UniProt E9PLG8),log2 fold change,[6],inactive: 0.032
same,log2 fold change,[7],inactive: -0.009
same,log2 fold change,[5],inactive: 0.028
same,log2 fold change,[9],inactive: 0
same,log2 fold change,[2],inactive: 0.027
same,log2 fold change,[3],inactive: -0.099
GLT8D1 (UniProt Q68CQ7),log2 fold change,[6],inactive: 0.012
same,log2 fold change,[7],inactive: 0.013
same,log2 fold change,[9],inactive: 0.231
GPSM3 (UniProt Q9Y4H4),log2 fold change,[6],inactive: -0.048
same,log2 fold change,[7],inactive: 0.118
same,log2 fold change,[9],inactive: 0.137
GJA1 (UniProt P17302),log2 fold change,[5],inactive: -0.116
GPT2 (UniProt Q8TD30),log2 fold change,[6],inactive: 0.118
same,log2 fold change,[7],inactive: 0.279
same,log2 fold change,[8],inactive: -0.106
same,log2 fold change,[9],inactive: -0.077
same,log2 fold change,[2],inactive: -0.069
same,log2 fold change,[3],inactive: -0.128

# Four entries from above in a different format:
target | measurement | setting | value
GNL3 (UniProt Q9BVP2) | log2 fold change | [5] | inactive: -0.054
GPS2 (UniProt Q13227) | log2 fold change | [4] | inactive: 0.066
GINM1 (UniProt Q9NU53) | log2 fold change | erlotinib | inactive: -0.153
GPT2 (UniProt Q8TD30) | log2 fold change | [7] | inactive: 0.279

# Given as tab-separated lines: entries from further up.
target	measurement	setting	value
GPATCH2L (UniProt Q9NWQ4)	log2 fold change	erlotinib	inactive: 0.558
GK5 (UniProt Q6ZS86)	log2 fold change	[4]	inactive: -0.03
GOLPH3L (UniProt Q9H4A5)	log2 fold change	[6]	inactive: -0.114
GPT2 (UniProt Q8TD30)	log2 fold change	[2]	inactive: -0.069
